Measurements as given in paper PMC12548414.
The whole screen tested about 1,600 compounds, of which about 20 (1%) showed an effect of 50% or more. The list shows a part of the results.

system: T1, E. coli pLC1021 (luc-trpAt trans-translation reporter); parameters: species or system Escherichia coli pLC1021; luc-trpAt non-stop luciferase reporter; luminescence rises when trans-translation is inhibited; normalized to KKL-35 and DMSO; conditions: reporter signal, KKL-35 = 100%; rise means trans-translation inhibition; 2 h, 20 µM
T1 construct: pLC1021 luc-trpAt reporter strain
How it was run: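 Luminescence (560 nm, 10 min after Bright-Glo) reports luciferase that escapes trans-translation tagging, measured after 2 h room-temperature treatment with 20 µM compound. Each plate was scaled between DMSO (negative) and 20 µM KKL-35 (positive) controls. Compounds scoring one standard deviation above the median counted as positive; at least two biological repeats.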

Structure (SMILES)	% activation
COc1ccc2c(c1)C(O)CC1(CCN(CC(O)c3ccc4c(c3)CCCC4)CC1)O2 (centres unmarked) [KKL-0556]	0%
Cc1ccc(C)c(N2C(=O)c3cccc4c([N+](=O)[O-])ccc(c34)C2=O)c1 [KKL-1360]	0%
O=c1oc(-c2ccccc2)cc(Cl)c1Cl [KKL-0741]	0%
Cn1nc([N+](=O)[O-])nc1Sc1ncnn1-c1ccccc1 [KKL-1548]	0%
CC(=O)c1ccc(NC(=O)NC(C)C23CC4CC(CC(C4)C2)C3)cc1 (centres unmarked) [KKL-1533]	0%
CSc1ccc(-c2nc(CN3CCN(c4ccc(Cl)cn4)CC3)c(C)o2)cc1 [KKL-0629]	0%
CN(C)c1ccc(C(O)(c2ccc(N(C)C)cc2)c2ccc(N(C)C)cc2)cc1 [KKL-1495]	0%
CC1(C)N=C(N)N=C(N)N1OCCc1ccc2ccccc2c1 [KKL-1717]	20%
COc1ccc2[nH]c(CNCCc3nc4cc(Cl)ccc4[nH]3)cc2c1 [KKL-1215]	0%
Cc1ccc(CNC(=O)c2cnn3c2NC(c2ccc(C)cc2)CC3C(F)F)cc1 (centres unmarked) [KKL-1766]	0%
Cn1ccnc1CNCCS(=O)(=O)c1cccc(Nc2ccc(-c3cccc(F)c3)cn2)c1 [KKL-1860]	2%
COC(=O)[C@@H]1Cc2c([nH]c3ccccc23)[C@H]2C[C@@H](NC(C)C)C[C@@H](c3cccc(Cl)c3)N21 [KKL-1594]	1%
COC(=O)c1sccc1NC(=O)c1c(F)c(F)c(F)c(F)c1F [KKL-1479]	0%
CCCn1c(NC(=O)c2cccc(C)c2C)nc2ccccc21 [KKL-0829]	3%
CSc1ncc(CN2CCCC(C(=O)c3ccc(-c4ccccc4)c(F)c3)C2)cn1 (centres unmarked) [KKL-0344]	0%
Cc1cc2c(cc1Cl)C(O)CC1(CCN(CC(O)c3ccc(Cl)cc3)CC1)O2 (centres unmarked) [KKL-0936]	2%
CC1C(c2ccccc2)N(C)C(c2ccccc2)CC1(O)c1ccccc1 (centres unmarked) [KKL-1046]	0%
NC(=O)C1Cc2ccc(C(=O)c3cccs3)cc2S1 (centres unmarked) [KKL-1835]	0%
Cc1cccc(N=C(S)NCCN2CCN(c3ccc(F)c(Cl)c3)CC2)c1C [KKL-1290]	0%
Cc1cccc(Nc2cc(Cl)c3nonc3c2[N+](=O)[O-])c1C [KKL-0853]	0%
CCCc1cc(NCCCn2ccnc2)n2nc(C)c(-c3ccccc3)c2n1 [KKL-0902]	17%

In the list so far, two have an NH in an aromatic ring:
Structure (SMILES)	% activation
COc1ccc2[nH]c(CNCCc3nc4cc(Cl)ccc4[nH]3)cc2c1 [KKL-1215]	0%
COC(=O)[C@@H]1Cc2c([nH]c3ccccc23)[C@H]2C[C@@H](NC(C)C)C[C@@H](c3cccc(Cl)c3)N21 [KKL-1594]	1%

Later entries

Structure (SMILES)	% activation
CCOC(=O)C1=C(c2ccc(C)cc2)C(=O)c2ccccc2C1=O [KKL-1404]	6%
O=Cc1ccc2oc3nc4n(c(=O)c3c(=O)c2c1)CCCS4 [KKL-0997]	8%
CCOC(=O)Cn1cc(/C=C(/C#N)c2nc3cc(OC)ccc3[nH]2)c2ccccc21 [KKL-0602]	2%
OC(CN1CCC2(CC1)CC(O)c1cc(F)ccc1O2)c1ccc2c(c1)CCCC2 (centres unmarked) [KKL-0925]	0%
CC1CCN(C(=O)COC(=O)c2cc3ccccc3cc2O)CC1 [KKL-0819]	0%
CC(C)(C)c1ccc(Cn2cnc([N+](=O)[O-])n2)cc1 [KKL-1556]	0%
CC(=O)Oc1cccc2ccc(/C=C/c3ccc(Cl)cc3)nc12 [KKL-1284]	0%
CCc1ccc(O)c(NC(=S)NC(=O)c2cccc3ccccc23)c1 [KKL-1439]	1%
O=C(Nc1nc(-c2ccccn2)cs1)C1CCCC1 [KKL-0791]	0%
O=C(CSc1ccc(Br)cc1)Nc1cccc(Cl)c1 [KKL-0413]	8%
O=C(c1ccccn1)N1CCCCC1c1nc(Nc2ccccc2)cc(-c2ccncc2)n1 (centres unmarked) [KKL-1263]	10%
O=C(Nc1nnc(SCc2ccc(F)cc2)s1)c1ccccn1 [KKL-0812]	14%
Cc1ccc2nc(C)c(C(=O)NCc3ccco3)n2c1 [KKL-1756]	0%
NC1CCc2nc(-c3ccncc3)nc(Nc3ccc(C(F)(F)F)cc3)c2C1 (centres unmarked) [KKL-0539]	620%
S=C(NCc1ccc(Cl)cc1)N1CCN(C/C=C/c2ccccc2)CC1 [KKL-1331]	0%
O=C(c1cc(COc2ccc(F)cc2Cl)on1)N1CCCCO1 [KKL-0558]	0%
CC(NC(=O)c1cc2cc(F)ccc2[nH]1)c1cc(O)n2nc(C3CCOCC3)cc2n1 (centres unmarked) [KKL-0691]	4%
CC(=O)N(C)c1ccc(OCC(O)Cn2c3ccc(Cl)cc3c3cc(Cl)ccc32)cc1 (centres unmarked) [KKL-0751]	7%
O=C(/C=C\c1ccccc1)Oc1cccc2cccnc12 [KKL-1634]	0%
CC(C)(C)C(=O)N1CCc2nc(N3CCCC3)nc(Oc3ccc(F)cc3)c2C1 [KKL-1348]	0%
